The results in this text go back to publication PMC3335848, “Characterization of Multi-Functional Properties and Conformational Analysis of MutS2 from Thermotoga maritima MSB8” (PLoS ONE, 2012).

A weaker result is weaker than the reference pair of the same experiment. Tags and fusion partners may be left off the protein sequences shown. The exact form of at least one protein or probe is not confirmed. At least one verdict rests on a figure or table, not on a statement of the authors.

The data set addresses T1, TmMutS2 (Thermotoga maritima MSB8) (UniProt Q9X105).
T1 sequence (looked up): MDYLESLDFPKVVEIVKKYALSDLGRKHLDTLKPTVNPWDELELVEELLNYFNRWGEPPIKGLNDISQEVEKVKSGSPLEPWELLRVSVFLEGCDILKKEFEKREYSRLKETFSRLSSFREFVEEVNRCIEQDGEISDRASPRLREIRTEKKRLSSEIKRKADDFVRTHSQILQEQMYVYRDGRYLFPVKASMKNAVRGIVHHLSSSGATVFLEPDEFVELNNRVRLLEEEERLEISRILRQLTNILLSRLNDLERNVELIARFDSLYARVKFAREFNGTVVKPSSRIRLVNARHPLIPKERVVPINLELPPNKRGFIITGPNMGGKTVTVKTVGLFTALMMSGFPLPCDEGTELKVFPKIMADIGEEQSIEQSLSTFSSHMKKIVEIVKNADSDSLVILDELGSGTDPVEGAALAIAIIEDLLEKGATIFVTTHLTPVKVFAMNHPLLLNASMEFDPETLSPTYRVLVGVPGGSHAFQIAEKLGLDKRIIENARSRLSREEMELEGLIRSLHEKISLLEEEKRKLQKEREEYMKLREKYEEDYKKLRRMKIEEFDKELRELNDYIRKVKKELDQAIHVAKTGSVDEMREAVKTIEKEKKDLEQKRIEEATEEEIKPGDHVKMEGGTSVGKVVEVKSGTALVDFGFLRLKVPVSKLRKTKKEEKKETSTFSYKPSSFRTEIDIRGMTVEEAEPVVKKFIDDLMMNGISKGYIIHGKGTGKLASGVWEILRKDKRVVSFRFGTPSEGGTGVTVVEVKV
Briefly: EMSA. Particulars: EMSA: 25 mM Hepes-NaOH pH 7.5, 200 mM NaCl, 0.5 mM EDTA, 37 C, 1 h, DNA 1 uM, TmMutS2 0-2 uM, recombinant protein. A general note: A gel shift assay detects complexes by their altered migration in electrophoresis.

[1] abbreviates: 1 mM ATP, 2 uM protein, residues 1-757, protein details: His-tag removed with TEV protease (pET-28aTEV), label: 5'-32P.
Setting [2] is: no ATP, +/- 1 mM ATP, residues 1-757, protein details: His-tag removed with TEV protease (pET-28aTEV), label: 5'-32P.

For “AACGGCATAAAGCTTGACGATTACATTGCTAGGACATGCTGTCTAGAGGATCCGACTATCGA / TGGGTGAACCTGCAGGTGGGCAAAGATGTCCTAGCAATGTAATCGTCAAGCTTTATGCCGTT [Flayed (DNA 4, fork)]”, where the note is “1 mM ATP, 2 uM protein, residues 1-757, protein details: His-tag removed with TEV protease (pET-28aTEV), label: 5'-32P, folded or branched DNA”, the binding result is on record as “binds more weakly”.
For “ACAGCACCAGATTCAGCAATTAAGCTCTAAGCCATCCGCAAAAATGACCTCTTATCAAAAGG / CCTTTTGATAAGAGGTCATTTTTGCGGATGGCTTAGAGCTTAATTGCTGAATCTGGTGGCTGT [Blunt duplex (DNA 1, linear)]”, the binding result by setting is: under setting [1], “binds more weakly”; under setting [2], “binds more weakly”.
As to “ACAGCACCAGATTCAGCAATTAAGCTCTAAGCCATCCGCAAAAATGACCTCTTATCAAAAGG / TCCTTTTGATAAGAGGTCATTTTTGCGGATGGCTTAGAGCTTAATTGC [5'-overhang (DNA 2)]”, the binding result by setting is: under setting [1], “binds more weakly”; under setting [2], “binds more weakly”.
As for “GACGCTGCCGAATCCTACCAGTGCCTTGCTAGGACATCTTTGCCCACCTGCAGGTCACCC / TGGGTGAACCTGCAGGTGGGCAAAGATGTCCTAGCAATGTAATCGTCAAGCTTTATGCCGTT / ATCGATAGTCGGATCCTCTAGACAGCATGTCCTAGCAAGGCACTGGTAGAATTCGGCAGCGT / CAACGGCATAAAGCTTGACGATTACATTGCTAGGACATGCTGTCTAGAGGATCCGACTATCGA [Four-way junction (FWJ, DNA 3)]”, the binding result (1 mM ATP, 2 uM protein, residues 1-757, protein details: His-tag removed with TEV protease (pET-28aTEV), label: 5'-32P (EMSA), folded or branched DNA) is listed as “binds more weakly”.
